Data source: PubChem BioAssay AID652272 (Drosophila RNAi Screening Center, 2013)
Screen: 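Genome-wide knock-down search for components of Hedgehog signalling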 (primary screen). Cells: Drosophila clone 8 (Cl8) cells. Knock-down reagent: long dsRNA against Drosophila genes. Measurement: 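Firefly light from a Hedgehog-responsive ptc promoter reporter and Renilla reference light, both read on a plate reader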. Reading the numbers: firefly Hh reporter signal: higher = more ptc reporter light; Renilla reference signal: higher = more Renilla control light. Hit rule: 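Called a hit if the two-replicate mean z-score lies below -2 or above +3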. Calls: active = hit: reporter lowered or raised; inactive = not a hit.
The screen tested about 21,000 reagents; below is an unselected part of those with a known target gene and a result. Over the whole deposit, 503 (2.4%) got an active call. 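Raw plate light values, not normalised; calls rest on replicate z-scores that were not deposited; hits include reporter decreases as well as increases.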 Not stated in the record: the amount of reagent, the time to read-out.

Against eIF3h [DRSC01995], the values are firefly Hh reporter signal, replicate 1 = 75066; firefly Hh reporter signal, replicate 2 = 58155; Renilla reference signal, replicate 1 = 4103; Renilla reference signal, replicate 2 = 2941; inactive.
Against CG17287 [DRSC06659] the deposit lists firefly Hh reporter signal, replicate 1 = 72856; firefly Hh reporter signal, replicate 2 = 43462; Renilla reference signal, replicate 1 = 1933; Renilla reference signal, replicate 2 = 3224; inactive.
CG32081 [DRSC09861] scored firefly Hh reporter signal, replicate 1 = 51043; firefly Hh reporter signal, replicate 2 = 43680; firefly Hh reporter signal, replicate 3 = 55397; Renilla reference signal, replicate 1 = 3846; Renilla reference signal, replicate 2 = 4821; inactive.
After knock-down of CG40006 [DRSC03787], the record shows firefly Hh reporter signal, replicate 1 = 1.28e5; firefly Hh reporter signal, replicate 2 = 2.25e5; Renilla reference signal, replicate 1 = 3587; Renilla reference signal, replicate 2 = 9927; inactive.
For CG40006 [DRSC03809], the entry reads firefly Hh reporter signal, replicate 1 = 1.46e5; firefly Hh reporter signal, replicate 2 = 2.55e5; Renilla reference signal, replicate 1 = 4338; Renilla reference signal, replicate 2 = 13190; inactive.
Depletion of CG40006 [DRSC03814] came out at: firefly Hh reporter signal, replicate 1 = 1.43e5; firefly Hh reporter signal, replicate 2 = 2.24e5; Renilla reference signal, replicate 1 = 3872; Renilla reference signal, replicate 2 = 9273; inactive.
Knock-down of CG40006 [DRSC03817] came out at: firefly Hh reporter signal, replicate 1 = 1.36e5; firefly Hh reporter signal, replicate 2 = 2.58e5; Renilla reference signal, replicate 1 = 3874; Renilla reference signal, replicate 2 = 11133; inactive.
bonsai [DRSC04453] gave firefly Hh reporter signal, replicate 1 = 90020; firefly Hh reporter signal, replicate 2 = 75350; Renilla reference signal, replicate 1 = 1792; Renilla reference signal, replicate 2 = 6049; inactive.
Against CG17378 [DRSC02616] the deposit lists firefly Hh reporter signal, replicate 1 = 1.22e5; firefly Hh reporter signal, replicate 2 = 76018; Renilla reference signal, replicate 1 = 3302; Renilla reference signal, replicate 2 = 8186; inactive.
Depletion of CG7882 [DRSC04899] resulted in: firefly Hh reporter signal, replicate 1 = 82947; firefly Hh reporter signal, replicate 2 = 65577; Renilla reference signal, replicate 1 = 1976; Renilla reference signal, replicate 2 = 5041; inactive.
With knock-down of Alp6 [DRSC06710], the record shows firefly Hh reporter signal, replicate 1 = 69629; firefly Hh reporter signal, replicate 2 = 53933; Renilla reference signal, replicate 1 = 2486; Renilla reference signal, replicate 2 = 2192; inactive.

A portion from the list above:
CG32081 [DRSC09861] → firefly Hh reporter signal, replicate 1: 51043; firefly Hh reporter signal, replicate 2: 43680; firefly Hh reporter signal, replicate 3: 55397; Renilla reference signal, replicate 1: 3846; Renilla reference signal, replicate 2: 4821; outcome: inactive
CG40006 [DRSC03787] → firefly Hh reporter signal, replicate 1: 1.28e5; firefly Hh reporter signal, replicate 2: 2.25e5; Renilla reference signal, replicate 1: 3587; Renilla reference signal, replicate 2: 9927; outcome: inactive
CG40006 [DRSC03809] → firefly Hh reporter signal, replicate 1: 1.46e5; firefly Hh reporter signal, replicate 2: 2.55e5; Renilla reference signal, replicate 1: 4338; Renilla reference signal, replicate 2: 13190; outcome: inactive

The listing continues.
l(2)k01209 [DRSC06889] gave firefly Hh reporter signal, replicate 1 = 73276; firefly Hh reporter signal, replicate 2 = 51291; Renilla reference signal, replicate 1 = 2064; Renilla reference signal, replicate 2 = 4256; inactive.
slv [DRSC07685] scored firefly Hh reporter signal, replicate 1 = 64096; firefly Hh reporter signal, replicate 2 = 45685; Renilla reference signal, replicate 1 = 1377; Renilla reference signal, replicate 2 = 3716; inactive.
With knock-down of RpL15 [DRSC20963], the record shows firefly Hh reporter signal, replicate 1 = 33030; firefly Hh reporter signal, replicate 2 = 51977; Renilla reference signal, replicate 1 = 2768; Renilla reference signal, replicate 2 = 6021; active.
With knock-down of CG30350 [DRSC07690] the results were firefly Hh reporter signal, replicate 1 = 1.05e5; firefly Hh reporter signal, replicate 2 = 67706; Renilla reference signal, replicate 1 = 2855; Renilla reference signal, replicate 2 = 5491; inactive.
After knock-down of ATP6AP2 [DRSC16420] the results were firefly Hh reporter signal, replicate 1 = 80892; firefly Hh reporter signal, replicate 2 = 1.13e5; Renilla reference signal, replicate 1 = 1284; Renilla reference signal, replicate 2 = 3304; inactive.
With knock-down of CG12520 [DRSC09892] the results were firefly Hh reporter signal, replicate 1 = 48788; firefly Hh reporter signal, replicate 2 = 29242; firefly Hh reporter signal, replicate 3 = 45905; Renilla reference signal, replicate 1 = 2818; Renilla reference signal, replicate 2 = 3211; inactive.
With knock-down of CG10433 [DRSC04068] the results were firefly Hh reporter signal, replicate 1 = 1.87e5; firefly Hh reporter signal, replicate 2 = 1.18e5; Renilla reference signal, replicate 1 = 7142; Renilla reference signal, replicate 2 = 4650; inactive.
After knock-down of Aptx [DRSC15768], the record shows firefly Hh reporter signal, replicate 1 = 6.17e5; firefly Hh reporter signal, replicate 2 = 1.17e5; Renilla reference signal, replicate 1 = 30656; Renilla reference signal, replicate 2 = 2873; inactive.
Depletion of Cad89D [DRSC15022] came out at: firefly Hh reporter signal, replicate 1 = 78976; firefly Hh reporter signal, replicate 2 = 71428; Renilla reference signal, replicate 1 = 3340; Renilla reference signal, replicate 2 = 940; inactive.
Silencing of Sec24AB [DRSC06478] came out at: firefly Hh reporter signal, replicate 1 = 1.05e5; firefly Hh reporter signal, replicate 2 = 82684; Renilla reference signal, replicate 1 = 4482; Renilla reference signal, replicate 2 = 3101; inactive.
